For two molecules, binding results are on record in article PMC4245968.

Amino acid sequences for entries named in this document (tags omitted).
UniProt E9Q1P8: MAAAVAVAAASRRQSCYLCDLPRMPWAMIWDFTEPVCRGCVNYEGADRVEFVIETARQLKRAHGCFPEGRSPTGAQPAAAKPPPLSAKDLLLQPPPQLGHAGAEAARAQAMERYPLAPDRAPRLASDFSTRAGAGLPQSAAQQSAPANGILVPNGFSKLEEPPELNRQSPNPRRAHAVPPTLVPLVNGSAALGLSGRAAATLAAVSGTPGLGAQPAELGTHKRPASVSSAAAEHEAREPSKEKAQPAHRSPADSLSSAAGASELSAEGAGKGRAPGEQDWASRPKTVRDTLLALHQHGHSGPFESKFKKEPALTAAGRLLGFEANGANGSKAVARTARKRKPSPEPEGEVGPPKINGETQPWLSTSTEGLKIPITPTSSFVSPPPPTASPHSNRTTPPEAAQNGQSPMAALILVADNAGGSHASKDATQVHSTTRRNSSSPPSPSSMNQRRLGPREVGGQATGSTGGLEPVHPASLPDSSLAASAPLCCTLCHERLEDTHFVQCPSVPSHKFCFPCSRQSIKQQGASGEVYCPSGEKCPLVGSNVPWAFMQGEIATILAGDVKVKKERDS

Results are given in words; binding and its absence hold for the method and conditions named. Binding seen in cells or lysates may run through a third protein. Some entries that bind do so weakly or less than the wild type. For part of these data: Sequences can lack the tags named with a protein.

The target of test [1] is 3×Flag-Bio(NLS)-Irf2bp2 (mouse (cDNA from MEL cells)) (UniProt E9Q1P8). Description: co-IP; Flag-IP: 10 μg anti-Flag antibody (M2) and protein G magnetic beads on nuclear extract, 4 h at room temperature, otherwise as the streptavidin-IP; Western blot; MEL/BirA cells as control. (In general: In western blotting, separated proteins are transferred to a membrane and probed.)

The target is the same in test [2]. In words: co-IP; streptavidin-IP: streptavidin-coated magnetic beads (Dynabeads M-280) on 1 mg nuclear extract diluted to 150 mM KCl, with 100 U benzonase, 3 h at room temperature, five washes with Heng150 (0.2% NP-40, 150 mM KCl); Western blot; MEL/BirA cells as control.
The target in a further test is T1, bio-tagged Ldb1 (UniProt P70662).
T1 sequence: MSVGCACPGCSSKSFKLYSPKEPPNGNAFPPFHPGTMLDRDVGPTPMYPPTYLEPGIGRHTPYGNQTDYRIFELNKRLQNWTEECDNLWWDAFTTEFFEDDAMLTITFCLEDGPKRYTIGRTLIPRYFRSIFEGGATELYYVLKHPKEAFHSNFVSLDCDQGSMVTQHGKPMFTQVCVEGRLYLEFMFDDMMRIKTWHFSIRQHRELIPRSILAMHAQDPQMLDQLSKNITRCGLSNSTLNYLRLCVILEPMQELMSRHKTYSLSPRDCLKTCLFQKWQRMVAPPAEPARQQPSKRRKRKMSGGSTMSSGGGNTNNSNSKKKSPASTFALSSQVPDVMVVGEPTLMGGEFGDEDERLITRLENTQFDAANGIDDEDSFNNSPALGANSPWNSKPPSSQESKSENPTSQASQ
The test is described as above.

B1: Irf2 (protein, UniProt P23906 1-349)
chain: MPVERMRMRPWLEEQINSNTIPGLKWLNKEKKIFQIPWMHAARHGWDVEKDAPLFRNWAIHTGKHQPGIDKPDPKTWKANFRCAMNSLPDIEEVKDRSIKKGNNAFRVYRMLPLSERPSKKGKKPKTEKEERVKHIKQEPVESSLGLSNGVSGFSPEYAVLTSAIKNEVDSTVNIIVVGQSHLDSNIEDQEIVTNPPDICQVVEVTTESDDQPVSMSELYPLQISPVSSYAESETTDSVASDEENAEGRPHWRKRSIEGKQYLSNMGTRNTYLLPSMATFVTSNKPDLQVTIKEDSCPMPYNSSWPPFTDLPLPAPVTPTPSSSRPDRETRASVIKKTSDITQARVKSC
As to B1, the binding entry in test [1] and in test [2] was “binds” each time.

B2: Fli-1 (protein, UniProt P26323 1-452)
chain: MDGTIKEALSVVSDDQSLFDSAYGAAAHLPKADMTASGSPDYGQPHKINPLPPQQEWINQPVRVNVKREYDHMNGSRESPVDCSVSKCNKLVGGGEANPMNYNSYMDEKNGPPPPNMTTNERRVIVPADPTLWTQEHVRQWLEWAIKEYGLMEIDTSFFQNMDGKELCKMNKEDFLRATSAYNTEVLLSHLSYLRESSLLAYNTTSHTDQSSRLNVKEDPSYDSVRRGAWNNNMNSGLNKSPLLGGSQTMGKNTEQRPQPDPYQILGPTSSRLANPGSGQIQLWQFLLELLSDSANASCITWEGTNGEFKMTDPDEVARRWGERKSKPNMNYDKLSRALRYYYDKNIMTKVHGKRYAYKFDFHGIAQALQPHPTETSMYKYPSDISYMPSYHAHQQKVNFVPSHPSSMPVTSSSFFGAASQYWTSPTAGIYPNPSVPRHPNTHVPSHLGSYY
With B2, the binding entry with bio-tagged Ldb1 is “binds”.
